The nature of the data set: peptide synthesis. The note with it: whole synthesis, scale 0.1 mmoles.

Where no end group is shown, it is not given here.

“SQGQVQPGARIFSFDGRDVLRHPAWPQKSVWHGSDPSGRRLMESY”: the isolated mass stood at 98 mg.

The record behind these values is patent US6921749B1 (Universita' Degli Studi di Milano, priority 1999, dated 2005).
